# Reference: PubChem BioAssay AID1259308 (NCATS, 2017)
# Screen: 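Knock-downs that increase output of a recombinant reporter protein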 (primary screen)
# Cells: human HEK293 embryonic kidney cells stably expressing firefly luciferase (HEK-CMV-Luc2-Hygro)
# Reagents: single siRNA against human genes, 0.8 pmol siRNA per well
# Timing: 72 h
# Read-out: 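Reporter luminescence and viable-cell signal on separate replicate plates, given as percent of non-targeting control and median/MAD z-scores, plus per-cell luciferase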
# Reading the numbers: total luciferase, z-score and total luciferase, % of control: higher = more reporter protein produced; luciferase per cell, z-score: higher = more reporter output per viable cell
# Active means: 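Active when the median/MAD z-score for overall luciferase is greater than 3; a gene was taken forward for validation with new siRNAs if at least two of its three siRNAs passed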
# Meaning of the calls: active = raised luciferase; inactive = no rise
# In all, the deposit lists about 59,000 reagents; this is a random part of them. About 1,510 of them (2.6%) count as active. 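Calls use total luciferase alone and ignore viability, so some active siRNAs may act by altering cell number.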 Unmarked entries are inactive. Reagents against one gene are numbered here. Further read-outs or replicates are left out here. No sequences are given here.
gene,reagent,"total luciferase, z-score","total luciferase, % of control","luciferase per cell, z-score"
LRRC8A,1,-1.16,58.8,-1.07
LRRC8A,2,-0.909,63.8,-0.838
LRRC8A,3,0.0636,83.2,0.34
LRP3,1,-2.16,38.8,-1.8
LRP3,2,-0.311,75.7,-1.04
LRP3,3,0.48,91.4,0.343
C3orf52,1,-1.21,57.9,-0.687
C3orf52,2,0.877,99.3,1.05
C3orf52,3,0.741,96.6,0.379
RGMA,1,0.249,86.8,0.46
RGMA,2,-2.43,33.5,-2.93
RGMA,3,1.69,116,0.809
NCOA1,1,2.46,131,1.05
NCOA1,2,0.00308,81.9,-0.403
NCOA1,3,-1.42,53.6,-2.46
C1orf216,1,0.187,85.6,0.0775
C1orf216,2,-2.22,37.8,-0.695
C1orf216,3,-0.614,69.7,-0.0589
SCIMP,1,-1.73,47.5,-1.57
SCIMP,2,0.897,99.7,1.44
SCIMP,3,-0.518,71.6,-0.716
EGFR,1,-0.193,78.1,0.449
EGFR,2,1.47,111,1.27
EGFR,3,0.249,86.8,-0.363
NUDT11,1,0.422,90.3,-0.447
NUDT11,2,3.04 (active),142,2.36
NUDT11,3,-0.238,77.1,-1.13

Looked up above:
Value for NCOA1 #2 under “total luciferase, % of control”: 81.9
NUDT11 #3, total luciferase, % of control = 77.1
SCIMP #3, total luciferase, % of control → 71.6
For “luciferase per cell, z-score”, EGFR #2 has 1.27
Result for RGMA #3 under “total luciferase, % of control”: 116
Entry for RGMA #1 in “luciferase per cell, z-score”: 0.46

Continued.
gene,reagent,"total luciferase, z-score","total luciferase, % of control","luciferase per cell, z-score"
IWS1,1,1.26,107,2.23
IWS1,2,-0.598,70,-0.464
IWS1,3,-0.905,63.9,-0.716
PZP,1,0.263,87.1,0.074
PZP,2,0.524,92.3,-0.122
PZP,3,-0.621,69.5,-0.868
KANSL1L,1,1.01,102,-0.0501
KANSL1L,2,0.812,98,0.132
KANSL1L,3,-0.779,66.4,-1.19
ZNF442,1,-2.19,38.3,0.433
ZNF442,2,0.853,98.8,0.617
ZNF442,3,1.97,121,0.854
PARVG,1,2.32,128,1.46
PARVG,2,0.655,94.9,1.05
PARVG,3,1.04,103,0.471
BCCIP,1,0.269,87.2,0.0527
BCCIP,2,-1.11,59.9,-1.15
BCCIP,3,-1.03,61.4,-1.27
CX3CR1,1,-0.334,75.2,-0.4
CX3CR1,2,0.885,99.5,1.03
CX3CR1,3,2.79,137,1.56
RAI14,1,-0.733,67.3,-0.759
RAI14,2,-0.0284,81.3,0.446
RAI14,3,1.56,113,1.02
PCP2,1,0.201,85.9,-0.45
PCP2,2,-0.843,65.1,-1.35
PCP2,3,0.239,86.6,0.267
DNAAF4,1,-0.561,70.7,0.991
DNAAF4,2,0.513,92.1,0.891
DNAAF4,3,0.411,90.1,-0.173
MAP3K6,1,1.39,109,0.767
MAP3K6,2,-0.598,70,-0.595
MAP3K6,3,-0.296,76,0.0324
CAMKK1,1,0.352,88.9,0.789
CAMKK1,2,0.231,86.5,0.195
CAMKK1,3,-0.738,67.2,-0.555
PHAX,1,-0.436,73.2,-0.349
PHAX,2,-0.921,63.6,-0.819
PHAX,3,-0.537,71.2,-0.776
DLGAP2,1,-1.14,59.2,-0.842
DLGAP2,2,1.44,111,1.07
DLGAP2,3,-1.75,47.1,-1.79
DLGAP2,4,-1.19,58.3,0.166
DLGAP2,5,-0.8,66,-0.702
DLGAP2,6,-0.572,70.5,-0.237
PDP2,1,-0.623,69.5,0.342
PDP2,2,-0.812,65.7,-1.29
PDP2,3,1.04,103,0.725
